No constants are given. Whether binding was seen depends on the method and setting. A result given as binding can be weak or reduced; the word gives no strength. Where a sequence is shown, tags or fusion partners need not be part of it. For part of these data: In cells and extracts the contact can be indirect. Blank lines part the entries; values can stand above or below the binder they belong to.
What was measured:
[1] = molecular target: BK-SSF (pGBKT7-SSF) (Arabidopsis thaliana); assay: two-hybrid; yeast strain AH109; pGBKT7-SSF (BD) with pGADT7-SKB1 (AD); interaction selected on SD/-Leu/-Trp/-His/-Ade; up to 4 d at 30 C
[2] = molecular target: SSF-nYFP (pSPYNE-SSF-YFP) (Arabidopsis thaliana); assay: split reporter; BiFC with split YFP in A. thaliana protoplasts; YFP fluorescence by confocal microscopy 2 d after transformation
[3] = molecular target: cLUC-SSF (772-cLUC-SSF) (Arabidopsis thaliana); assay: split reporter; luciferase complementation (LCI) in N. benthamiana leaves, Agrobacterium GV3101 infiltration; read 48 h after injection

- binding [1]: binds
B1: AD-SKB1 (pGADT7-SKB1) (protein, UniProt Q8GWT4 1-642)
chain: MPLGERGGWERTESRYCGVETDFSNDVTHLLNFNISTGGFDYVLAPLVDPSYRPSLVEGNGVDTQVLPVCGSDLVLSPSQWSSHVVGKISSWIDLDSEDEVLRMDSETTLKQEIAWATHLSLQACLLPTPKGKSCANYARCVNQILQGLTTLQLWLRVPLVKSEGDSMDDTSEGLNDSWELWNSFRLLCEHDSKLSVALDVLSTLPSETSLGRWMGESVRAAILSTDAFLTNARGYPCLSKRHQKLIAGFFDHAAQVVICGKPVHNLQKPLDSSSEGTEKNPLRIYLDYVAYLFQKMESLSEQERIELGYRDFLQAPLQPLMDNLEAQTYETFERDSVKYIQYQRAVEKALVDRVPDEKASELTTVLMVVGAGRGPLVRASLQAAEETDRKLKVYAVEKNPNAVVTLHNLVKMEGWEDVVTIISCDMRFWNAPEQADILVSELLGSFGDNELSPECLDGAQRFLKPDGISIPSSYTSFIQPITASKLYNDVKAHKDLAHFETAYVVKLHSVAKLAPSQSVFTFTHPNFSTKVNNQRYKKLQFSLPSDAGSALVHGFAGYFDSVLYKDVHLGIEPTTATPNMFSWFPIFFPLRKPVEVHPDTPLEVHFWRCCGSSKVWYEWSVSSPTPSPMHNTNGRSYWVGL

- binding [2]: binds
B2: SKB1-cYFP (pSPYCE-SKB1-YFP) (protein, UniProt Q8GWT4 1-642)
chain: MPLGERGGWERTESRYCGVETDFSNDVTHLLNFNISTGGFDYVLAPLVDPSYRPSLVEGNGVDTQVLPVCGSDLVLSPSQWSSHVVGKISSWIDLDSEDEVLRMDSETTLKQEIAWATHLSLQACLLPTPKGKSCANYARCVNQILQGLTTLQLWLRVPLVKSEGDSMDDTSEGLNDSWELWNSFRLLCEHDSKLSVALDVLSTLPSETSLGRWMGESVRAAILSTDAFLTNARGYPCLSKRHQKLIAGFFDHAAQVVICGKPVHNLQKPLDSSSEGTEKNPLRIYLDYVAYLFQKMESLSEQERIELGYRDFLQAPLQPLMDNLEAQTYETFERDSVKYIQYQRAVEKALVDRVPDEKASELTTVLMVVGAGRGPLVRASLQAAEETDRKLKVYAVEKNPNAVVTLHNLVKMEGWEDVVTIISCDMRFWNAPEQADILVSELLGSFGDNELSPECLDGAQRFLKPDGISIPSSYTSFIQPITASKLYNDVKAHKDLAHFETAYVVKLHSVAKLAPSQSVFTFTHPNFSTKVNNQRYKKLQFSLPSDAGSALVHGFAGYFDSVLYKDVHLGIEPTTATPNMFSWFPIFFPLRKPVEVHPDTPLEVHFWRCCGSSKVWYEWSVSSPTPSPMHNTNGRSYWVGL

- binding [3]: binds
B3: SKB1-nLUC (771-nLUC-SKB1) (protein, UniProt Q8GWT4 1-642)
chain: MPLGERGGWERTESRYCGVETDFSNDVTHLLNFNISTGGFDYVLAPLVDPSYRPSLVEGNGVDTQVLPVCGSDLVLSPSQWSSHVVGKISSWIDLDSEDEVLRMDSETTLKQEIAWATHLSLQACLLPTPKGKSCANYARCVNQILQGLTTLQLWLRVPLVKSEGDSMDDTSEGLNDSWELWNSFRLLCEHDSKLSVALDVLSTLPSETSLGRWMGESVRAAILSTDAFLTNARGYPCLSKRHQKLIAGFFDHAAQVVICGKPVHNLQKPLDSSSEGTEKNPLRIYLDYVAYLFQKMESLSEQERIELGYRDFLQAPLQPLMDNLEAQTYETFERDSVKYIQYQRAVEKALVDRVPDEKASELTTVLMVVGAGRGPLVRASLQAAEETDRKLKVYAVEKNPNAVVTLHNLVKMEGWEDVVTIISCDMRFWNAPEQADILVSELLGSFGDNELSPECLDGAQRFLKPDGISIPSSYTSFIQPITASKLYNDVKAHKDLAHFETAYVVKLHSVAKLAPSQSVFTFTHPNFSTKVNNQRYKKLQFSLPSDAGSALVHGFAGYFDSVLYKDVHLGIEPTTATPNMFSWFPIFFPLRKPVEVHPDTPLEVHFWRCCGSSKVWYEWSVSSPTPSPMHNTNGRSYWVGL

— publication PMC10941358
